Measurements taken from the supplement of paper PMC12823440, “Inhibitors supercharge kinase turnover through native proteolytic circuits” (Nature, 2025).
The other results are listed elsewhere or left out. The calls rarely recur for the same compound in another form.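 Kinases were expressed as nanoluciferase fusions in K562 cells and luminescence was read every 4 h between 2 and 18 h as percent of control, DMSO set to 100% and a positive control to 0%. A time point counts as decreased when the signal drops significantly (2 sigma). The hit call is the authors' own, does not follow from the count of time points alone, and its rule is not shown.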

Amino acid sequences for entries named in this document (tags omitted).
UniProt Q16288, whole entry, looked up: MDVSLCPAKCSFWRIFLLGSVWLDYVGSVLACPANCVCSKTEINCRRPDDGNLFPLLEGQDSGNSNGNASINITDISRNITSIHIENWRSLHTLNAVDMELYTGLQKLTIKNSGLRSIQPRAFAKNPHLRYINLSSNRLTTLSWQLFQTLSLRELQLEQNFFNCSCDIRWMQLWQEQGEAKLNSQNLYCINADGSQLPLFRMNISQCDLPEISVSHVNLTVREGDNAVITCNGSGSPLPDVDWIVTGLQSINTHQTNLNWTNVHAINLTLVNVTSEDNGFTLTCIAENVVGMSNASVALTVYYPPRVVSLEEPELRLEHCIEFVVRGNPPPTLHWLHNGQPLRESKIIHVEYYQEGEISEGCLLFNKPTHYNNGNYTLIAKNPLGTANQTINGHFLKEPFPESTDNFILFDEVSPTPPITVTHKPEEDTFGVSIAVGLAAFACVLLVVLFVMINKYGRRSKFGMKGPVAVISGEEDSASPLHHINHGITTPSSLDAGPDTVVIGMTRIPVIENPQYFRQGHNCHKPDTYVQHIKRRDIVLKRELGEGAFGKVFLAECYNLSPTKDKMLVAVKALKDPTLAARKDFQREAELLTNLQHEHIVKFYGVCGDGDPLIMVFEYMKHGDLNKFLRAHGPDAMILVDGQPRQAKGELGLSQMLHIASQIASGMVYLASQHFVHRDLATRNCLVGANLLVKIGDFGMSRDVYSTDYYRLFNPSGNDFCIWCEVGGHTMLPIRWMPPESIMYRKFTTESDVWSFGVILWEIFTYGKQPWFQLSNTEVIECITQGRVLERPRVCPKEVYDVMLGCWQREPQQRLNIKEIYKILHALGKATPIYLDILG

biological target: NTRK3 (UniProt Q16288); assay: number of time points (of 5) at which kinase-Nluc abundance scored as decreased, DMSO-normalised (count); higher = more persistent destabilization; details: K562; 2-18 h

| SMILES | number of time points |
| --- | --- |
| O=Nc1c(-c2c(O)[nH]c3cc(Br)ccc23)[nH]c2ccccc12 [GSK 3 Inhibitor IX] (2.5 µM) | 0 |
| Cn1c2cc([S+](C)[O-])sc2c2cnn(Cc3cccc(N)c3)c(=O)c21 (stereo unspecified) (2.5 µM) | 0 |
| Cc1cc(-n2c(=O)ccc3c[nH]c4nccc-4c32)ccc1F (10 µM) | 0 |
| CCCn1/c(=N/C(=O)c2cccc(C(N)=O)c2)[nH]c2ccccc21 [Takinib] (10 µM) | 0 |
| CO[C@H]1C[C@@H]2CC[C@@H](C)[C@@](O)(O2)C(=O)C(=O)N2CCCC[C@H]2C(=O)O[C@H]([C@H](C)C[C@@H]2CC[C@@H](OCCO)[C@H](OC)C2)CC(=O)[C@H](C)/C=C(\C)[C@@H](O)[C@@H](OC)C(=O)[C@H](C)C[C@H](C)/C=C/C=C/C=C/1C [Everolimus] (10 µM) | 0 |
| Cc1cccc(-c2[nH]ncc2-c2ccnc3ccccc23)n1 (10 µM) | 0 |
| CC1(N)CCN(c2cccnc2NC(=O)c2nc(-c3ncccc3C(F)(F)F)cnc2N)CC1 [Darovasertib] (10 µM) | 0 |
| COc1cc2c(cc1Nc1ncc(C(N)=O)c(Nc3c(F)cccc3C(F)(F)F)n1)CN(C)CC2 (2.5 µM) | 0 |
| COc1cc2ncnc(Nc3ccc(O)c(Br)c3)c2cc1OC (10 µM) | 0 |
| Nc1nc2c(nc(Br)n2[C@@H]2O[C@@H]3COP(=O)(O)O[C@H]3[C@H]2O)c(=O)[nH]1 [8-Bromo-cGMP (sodium)] (10 µM) | 0 |
| O=c1c2c([nH]n1-c1nc3ccccc3s1)CCCC2 (10 µM) | 0 |

Copied from the listing, 2 compounds:

| SMILES | number of time points |
| --- | --- |
| O=Nc1c(-c2c(O)[nH]c3cc(Br)ccc23)[nH]c2ccccc12 [GSK 3 Inhibitor IX] (2.5 µM) | 0 |
| Cn1c2cc([S+](C)[O-])sc2c2cnn(Cc3cccc(N)c3)c(=O)c21 (stereo unspecified) (2.5 µM) | 0 |
